From patent publication US6800464B2, “Arthrobacter D-carbamoylase and methods of preparing enantiomerically enriched D-amino acids” (Degussa AG, priority 2001, dated 2004)
At least one compound was matched to its structure with a doubt left.

Amino acid sequences for entries named in this document (tags omitted).
UniProt A0A1H1C375, entry or part of it: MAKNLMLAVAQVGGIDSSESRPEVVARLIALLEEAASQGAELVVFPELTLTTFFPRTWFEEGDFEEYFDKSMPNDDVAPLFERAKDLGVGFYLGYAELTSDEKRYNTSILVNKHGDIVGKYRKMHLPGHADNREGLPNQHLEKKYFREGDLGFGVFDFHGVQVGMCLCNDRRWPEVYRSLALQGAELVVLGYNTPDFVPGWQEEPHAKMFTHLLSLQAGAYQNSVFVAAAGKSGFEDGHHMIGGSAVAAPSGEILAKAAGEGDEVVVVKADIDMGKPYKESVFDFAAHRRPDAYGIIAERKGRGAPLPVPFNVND

Target: D-carbamoylase from Arthrobacter crystallopoietes DSM 20117 (Crystallibacter crystallopoietes, UniProt A0A1H1C375)
Experiment: Substrate specificity of the purified D-carbamoylase (relative conversion of carbamoyl substrates)
Assay type: biochemical
Details: assay conditions of substrate spectrum, 30° C., pH 8.0
Protocol: The homogeneously purified D-carbamoylase with the His-tag and ttg start codon (pMW1 —FIG. 5) was used for characterization of the enzyme obtained in this way. The enzyme was present in 0.1 M KPB pH 8.0.
To determine the substrate spectrum, the enzyme was incubated at a reaction temperature of 30° C. with the particular substrate in the presence of 0.1 M potassium phosphate buffer pH 8.0. To ensure the same concentration of the D-isomer, if the substrate was present as an isomer mixture a concentration of 20 mM was established; if the substrate was present as a pure isomer a concentration of 10 mM was established.

SMILES: CCCC(=O)O [β-Ureido-succinate]
- conversion of substrate (in words): not converted
